# The other results are listed elsewhere or left out. These are further read-outs of the screen, such as a control signal, another cell line or another target. No call is given for them. Most of these compounds were active or inconclusive in the main read-out, so they are no random draw. The note in brackets gives the kind of curve behind each potency; many fits are weak.
# Test: qHTS Assay for Lipid Storage Modulators in Drosophila S3 Cells;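 on cell number change: cells counted by Cell Tracker Red CMTPX staining in the red channel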
# Conditions: BODIPY lipid droplet fluorescence, 18-24 h; for cell number change: measured here: cell count max response, cells fed with added oleic acid
# Method in brief: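 Drosophila S3 cells got compounds at several concentrations plus oleic acid (400 uM solution). Laser-scanning cytometry with 488 nm excitation read lipid droplets at 500-530 nm and cells at 575-640 nm. Percent activity was relative to 20 uM Triacsin C.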
# [1] = measured here: lipid fluorescence (Fed channel) AC50, cells fed with added oleic acid
# [2] = measured here: cell number channel AC50, cells fed with added oleic acid
Structure (SMILES),cell number change [%],AC50 [1],AC50 [2]
CC(O)CNc1nc2c(c(=O)n(C)c(=O)n2C)n1CCc1ccccc1 (stereo not drawn),7.38,"0.461 µM [falling, partial curve, poor fit]",
CCSc1ccc([C@@H]2[C@H]3C(=O)N(C)C(=O)[C@H]3[C@]3(C(=O)OC)CCCCN23)cc1OC,20.4,,
CC1=C(C(=O)Nc2ccccc2C)C(c2ccccc2)NC(=O)N1 (stereo not drawn),8.21,"0.58 µM [rising, single point]",
COc1cc(/C=C/c2cc(C(=O)O)c3ccccc3n2)ccc1OC(F)F,34.4,,"13 µM [rising, partial curve, poor fit]"
CCCOc1ccc(/C=N/Nc2ccccn2)cc1OC,1.88,,"6.51 µM [falling, single point]"
C[C@H](NC(=O)c1ncn(Cc2ccccc2)c1C(=O)N[C@@H](C)c1ccccc1)c1ccccc1,-0.712,,
Fc1ccccc1N1CCN(CC2CCCCC2)CC1,17.5,"29.1 µM [rising, partial curve, poor fit]",
CC1CCN(CCNC(=O)C2CCN(S(=O)(=O)c3cccc4nsnc34)CC2)CC1,-16.3,,
O=C(CSc1nc2ccccc2c(=O)n1NC(=O)c1ccccc1)c1ccccc1,16.9,"2.59 µM [rising, full curve]",
COc1ccc(CNC(=O)C2CCN(S(=O)(=O)c3ccc(-c4nn[nH]n4)cc3)CC2)cc1,6.02,,
COc1ccc(C(=S)N2CCOCC2)cc1OS(=O)(=O)c1ccc(Br)cc1,10.6,"16.4 µM [falling, single point]","3.66 µM [rising, partial curve, poor fit]"
O=C(CSC(=S)N1CCCCC1)c1c(F)cccc1F,-65.9,"23.1 µM [falling, single point]","20.6 µM [falling, single point]"
CC(=O)Nc1ccc(S(=O)(=O)Nc2ccccc2N2CCOCC2)cc1Cl,28.2,"6.51 µM [rising, single point]",
CCCc1cc(=O)n2[nH]c(C)nc2n1,-12.4,"23.1 µM [falling, partial curve]",
CSC1=NCCN1C(=O)c1c(F)cccc1Cl,41.6,"2.91 µM [rising, partial curve]","14.6 µM [rising, single point]"
c1ccc(OCc2nnc3sc(-c4cccs4)nn23)cc1,-7.21,"2.06 µM [rising, full curve]",
Cc1cc(NC(=O)CSc2nnc(CNc3cccc(C(F)(F)F)c3)n2Cc2ccco2)no1,10.1,"0.231 µM [falling, full curve, poor fit]",

# Some entries already given, reduced to AC50 [1] and cell number change [%].
Structure (SMILES) | AC50 [1] | cell number change [%]
Fc1ccccc1N1CCN(CC2CCCCC2)CC1 | 29.1 µM [rising, partial curve, poor fit] | 17.5
CC1CCN(CCNC(=O)C2CCN(S(=O)(=O)c3cccc4nsnc34)CC2)CC1 |  | -16.3

# Source: PubChem BioAssay AID2685 (National Center for Advancing Translational Sciences (NCATS), 2010)
